# Measured data: PubChem BioAssay AID504784 (Drosophila RNAi Screening Center, 2011)
# Test: 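Genome-wide knock-down for genes giving too much or too little stored lipid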 (primary screen)
# Cell system: Drosophila Kc167 embryonic cells
# Reagents: long dsRNA against Drosophila genes, about 250 ng dsRNA per well
# Timing: 4 days
# Conditions: cells fed 400 µM oleic acid bound to BSA
# Detection: 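Microscope images give a droplet-to-nucleus area ratio, taken as log and converted to a screen-wide B-score; higher values mean greater lipid storage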
# Scale: droplet/nuclear area B-score: higher = more stored lipid (overstorage)
# In all, the deposit lists about 17,000 reagents; below is a random part of those that have a named target and a result. 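Each column is one replicate's B-score; the combined score over replicates was not deposited, so single values may mislead.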 A plus sign joins genes that one reagent is predicted to hit.
target,dsRNA,"droplet/nuclear area B-score, replicate 1","droplet/nuclear area B-score, replicate 2","droplet/nuclear area B-score, replicate 3"
CG8314,DRSC07144,0.00497,-0.09,
CG10916,DRSC06012,-1.57,,
CG15499 (retired record),DRSC15041,-2.03,-0.249,
asRNA:Eig63F-2 + Eip63F-1,DRSC21446,-0.788,-0.539,
CG12860,DRSC06200,0.927,1.7,
Dus4 (Dihydrouridine synthase 4),DRSC02066,-0.04,0.432,
EloA (Elongin A),DRSC16109,0.263,-0.433,
BaraB (Baramicin B),DRSC06420,0.904,-1.66,
CG34404,DRSC15335,1.42,-3.06,
CG34404,DRSC15978,0.943,-0.549,
CG12643,DRSC17849,-0.01,-0.326,-0.0255
CheB38a (Chemosensory protein B 38a),DRSC03205,-0.671,-1.89,-0.374
RhoGEF4 (Rho guanine nucleotide exchange factor 4),DRSC11011,-0.0196,-0.891,
CG14563,DRSC11724,1,1.66,
CG7860,DRSC20060,0.447,1.06,1.11
Vm26Ac (Vitelline membrane 26Aac),DRSC02329,-0.581,-0.00911,
CG32407,DRSC09789,0.644,-0.0927,
Pi3K21B,DRSC00771,-0.436,0.362,
"AP-2sigma (Adaptor Protein complex 2, sigma subunit)",DRSC15957,-4.41,-1.56,
CG18258,DRSC19798,-1.57,-2.28,
Ice1 (Interacts with the C terminus of ELL 1),DRSC04191,0.328,-0.84,
CG5446,DRSC02862,-1.22,0.0917,
Slmap (Sarcolemma associated protein),DRSC03799,-0.43,0.667,
Rpt4R (Regulatory particle triple-A ATPase 4-related),DRSC10791,-2,-1.41,
CG17298,DRSC15221,-2.48,0.573,
loj (logjam),DRSC09791,-2.17,0.263,
CG1602,DRSC06601,1.33,1.33,
CG9815,DRSC04567,0.203,1.28,
CG12159,DRSC06114,1.22,-2.5,
RpS14a (Ribosomal protein S14a),DRSC18710,-0.124,2.74,
Su(z)12,DRSC11293,2.39,1.25,
CG13675,DRSC10034,-0.117,-1.76,
CG13675,DRSC23124,1.1,-0.495,
Lkr (Leucokinin receptor),DRSC09754,0.899,-0.945,
CG7402,DRSC10839,0.865,-0.298,
CR31846 (retired record),DRSC22272,-0.416,-0.00605,
CG13527,DRSC04169,0.822,-0.0931,
Mhcl (Myosin heavy chain-like),DRSC13130,0.855,0.338,
Mhcl (Myosin heavy chain-like),DRSC14216,-0.36,-1.04,
Mhcl (Myosin heavy chain-like),DRSC16753,-0.0224,0.000747,
CG1620,DRSC06603,-3.33,-0.232,
Sgsh (N-sulfoglucosamine sulfohydrolase),DRSC14771,0.372,-0.449,
ND-24 (NADH dehydrogenase (ubiquinone) 24 kDa subunit),DRSC19960,2.48,1.02,
moi + Tgs1,DRSC16371,0.463,0.0641,
ImpL1 (Ecdysone-inducible gene L1),DRSC11197,-1.17,,
cv-2 (crossveinless 2),DRSC03861,0.887,-0.0279,
cv-2 (crossveinless 2),DRSC04261,0.0901,0.00369,
ng1 (new glue 1),DRSC18802,-0.617,-0.948,
CG4892,DRSC01937,-1.4,1.82,
PIG-B (Phosphatidylinositol glycan anchor biosynthesis class B),DRSC08216,-0.827,1.43,0.397
PIG-B (Phosphatidylinositol glycan anchor biosynthesis class B),DRSC22598,0.805,-0.183,
CG13423,DRSC06386,-1.45,0.0494,
Rok (Rho kinase),DRSC20277,-1.82,-0.713,
Rok (Rho kinase),DRSC23348,0.0256,-0.262,
PXo (P[[i]]-sensitive XPR1 orthologue),DRSC09734,-1.67,0.292,
Cbp20 (cap binding protein 20),DRSC16601,-2.71,-1.2,
Hmg-2 (High mobility group protein 2),DRSC04554,-0.756,-2.32,
CG13151,DRSC06276,0.0977,-0.531,
CG32461,DRSC11594,-0.135,-0.624,
Sirt1 (Sirtuin 1),DRSC03435,-0.701,0.00232,
hoip (hoi-polloi),DRSC03546,2.49,2.52,
CG13717 (retired record),DRSC08116,-1.49,-0.898,
CG13717 (retired record),DRSC08324,0.166,0.69,
CG13717 (retired record),DRSC08326,2.39,2.24,
CG13717 (retired record),DRSC21337,0.885,2.17,
CG13717 (retired record),DRSC23087,-0.194,-0.678,
Pss (Phosphatidylserine synthase),DRSC11757,3.06,2.21,
GstS1 (Glutathione S transferase S1),DRSC07436,-2.27,0.661,
CG7029,DRSC16177,-0.216,-0.829,
Git (G protein-coupled receptor kinase interacting ArfGAP),DRSC06620,-2.14,0.465,
CG9328,DRSC03203,2.84,-0.892,
CG16985,DRSC08501,0.954,-0.736,
tay (tay bridge),DRSC20142,-2.17,-0.617,1.19
CG15870,DRSC06588,0.221,-0.334,
DnaJ-1 (DnaJ-like-1),DRSC11145,-0.544,0.211,
scw (screw),DRSC01711,-0.615,-0.599,
scw (screw),DRSC21252,-0.0127,0.702,
Cht11 (Chitinase 11),DRSC18270,0.762,0.697,
DZIP1,DRSC14620,-1.66,-0.539,
CG17107,DRSC02575,0.309,0.116,-0.239
CG17107,DRSC22627,-0.529,-0.38,
CG10417,DRSC04846,-0.701,1.24,
CG4984 + CG4975,DRSC06907,-0.364,0.338,
CG4984 + CG4975,DRSC06908,-0.966,2.14,

Taken from above:
Entry of CG10417 [DRSC04846] in “droplet/nuclear area B-score, replicate 2”: 1.24
For “droplet/nuclear area B-score, replicate 2”, Dus4 (Dihydrouridine synthase 4) [DRSC02066] shows 0.432
For “droplet/nuclear area B-score, replicate 1”, CG9815 [DRSC04567] shows 0.203
Under “droplet/nuclear area B-score, replicate 2”, CG18258 [DRSC19798] shows -2.28
Result of CG4892 [DRSC01937] under “droplet/nuclear area B-score, replicate 1”: -1.4
Result for CG17107 [DRSC22627] in “droplet/nuclear area B-score, replicate 1”: -0.529
